Measurements as given in the supplement of paper PMC4604168 (melanoma cell lines).
This is one part of the list. Single values are uncertain, as repeats are few or missing.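 Imaging used 1,536-well plates; nuclei positive for cleaved PARP by antibody were divided by total DNA-stained nuclei to yield the apoptosis fraction. Doses for screening kept most cells viable, and cell lines differ markedly in resting and induced cleaved-PARP levels.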

How the values were obtained:
Assay in all cases: cleaved PARP positive nuclei fraction relative to DMSO control; melanoma cells; higher = more apoptosis
Conditions in all cases: library dose: low library concentration; 72 h
501Mel = system: 501Mel
A101D = system: A101D
A2058 = system: A2058
A375 = system: A375
C32 = system: C32
CBRC008 = system: CBRC008 (line from a melanoma biopsy)
CBRC013 = system: CBRC013 (line from a melanoma biopsy)
CBRC014 = system: CBRC014 (line from a melanoma biopsy)
CBRC016 = system: CBRC016 (line from a melanoma biopsy)
CBRC017 = system: CBRC017 (line from a melanoma biopsy)
COLO792 = system: COLO792
COLO800 = system: COLO800
COLO829 = system: COLO829
G361 = system: G361
IPC-298 = system: IPC-298
IST-MEL1 = system: IST-MEL1
LB2518-MEL = system: LB2518-MEL
LOXIMVI = system: LOXIMVI
MEL-HO = system: MEL-HO

Compound | cleaved PARP positive nuclei fraction (501Mel) | cleaved PARP positive nuclei fraction (A101D) | cleaved PARP positive nuclei fraction (A2058) | cleaved PARP positive nuclei fraction (A375) | cleaved PARP positive nuclei fraction (C32) | cleaved PARP positive nuclei fraction (CBRC008) | cleaved PARP positive nuclei fraction (CBRC013) | cleaved PARP positive nuclei fraction (CBRC014) | cleaved PARP positive nuclei fraction (CBRC016) | cleaved PARP positive nuclei fraction (CBRC017) | cleaved PARP positive nuclei fraction (COLO792) | cleaved PARP positive nuclei fraction (COLO800) | cleaved PARP positive nuclei fraction (COLO829) | cleaved PARP positive nuclei fraction (G361) | cleaved PARP positive nuclei fraction (IPC-298) | cleaved PARP positive nuclei fraction (IST-MEL1) | cleaved PARP positive nuclei fraction (LB2518-MEL) | cleaved PARP positive nuclei fraction (LOXIMVI) | cleaved PARP positive nuclei fraction (MEL-HO)
Cc1ccc(Nc2nccc(N(C)c3ccc4c(C)n(C)nc4c3)n2)cc1S(N)(=O)=O [Pazopanib] + CC(C)(C)c1cnc(CSc2cnc(NC(=O)C3CCNCC3)s2)o1 [SNS-032] (first compound 0.4 µM, partner dose 0.01 µM) | 69.7% | 78.4% | 42.8% | 208% | 134% | 42.7% | 144% | 35.1% | 81.9% | 89.7% | 138% | 123% | 114% | 142% | 49.8% | 128% | 85.9% | 26.7% | 128%
Cc1cc(Nc2cc(N3CCN(C)CC3)nc(Sc3ccc(NC(=O)C4CC4)cc3)n2)n[nH]1 [Tozasertib] + CC(C)(C)c1cnc(CSc2cnc(NC(=O)C3CCNCC3)s2)o1 [SNS-032] (first compound 0.006 µM, partner dose 0.01 µM) | 81.9% | 140% | 119% | 74.3% | 87.8% | 99.8% | 143% | 71% | 54.3% | 190% | 157% | 102% | 145% | 57.3% | 175% | 22.2% | 48.2% | 29.7% | 185%
N#CC[C@H](C1CCCC1)n1cc(-c2ncnc3[nH]ccc23)cn1 [ruxolitinib] + C[C@@H]1CCN(C(=O)CC#N)C[C@@H]1N(C)c1ncnc2[nH]ccc12 [CP690550] (first compound 1 µM, partner dose 1 µM) | 59.6% | 132% | 43.4% | 20% | 52.1% | 111% | 103% | 83.3% | 103% | 69.9% | 48.7% | 62.4% | 67.2% | 60.4% | 41.8% | 91.8% | 70.2% | 98.7% | 159%
Cc1ccc(Nc2nccc(N(C)c3ccc4c(C)n(C)nc4c3)n2)cc1S(N)(=O)=O [Pazopanib] + C[C@@H]1CCN(C(=O)CC#N)C[C@@H]1N(C)c1ncnc2[nH]ccc12 [CP690550] (first compound 0.4 µM, partner dose 1 µM) | 189% | 46.2% | 151% | 53.8% | 104% | 49.5% | 91.3% | 94% | 167% | 116% | 112% | 39.4% | 77.8% | 156% | 57.4% | 47.7% | 87% | 72.4% | 65.9%
CCCCCCCCCCCCCCCCCCOP(=O)([O-])OC1CC[N+](C)(C)CC1 [Perifosine] + NC(=O)Nc1cc(-c2cccc(F)c2)sc1C(=O)N[C@H]1CCCNC1 [AZD7762] (first compound 0.4 µM, partner dose 0.02 µM) | 78.2% | 67.4% | 110% | 319% | 124% | 157% | 64.2% | 87.6% | 117% | 91.6% | 55.5% | 149% | 67.4% | 107% | 80.7% | 27.9% | 83.8% | 47.7% | 141%
O=C(/C=C/c1cccnc1)NCCCCC1CCN(C(=O)c2ccccc2)CC1 + Cc1cc(N2CCOCC2)cc2[nH]c(-c3c(NC[C@@H](O)c4cccc(Cl)c4)cc[nH]c3=O)nc12 [BMS536924] (first compound 0.01 µM, partner dose 0.2 µM) | 91.6% | 84.9% | 79.3% | 235% | 102% | 1690% | 243% | 91.6% | 339% | 767% | 364% | 271% | 460% | 2780% | 160% | 69.7% | 154% | 66.3% | 730%
O=c1[nH]nc(Sc2ncc([N+](=O)[O-])s2)n1-c1ccc2c(c1)OCCO2 + O=C(Nc1cccc(Cl)c1)Nc1ncc(CCNc2ncnc3ccsc23)s1 [SNS314] (first compound 0.2 µM, partner dose 0.0008 µM) | 70.2% | 58.4% | 57.1% | 120% | 76.1% | 156% | 126% | 76.5% | 135% | 88.1% | 83.3% | 101% | 125% | 49.2% | 88% | 66.7% | 89.4% | 25.7% | 92.4%
CCCCCCCCCCCCCCCCCCOP(=O)([O-])OC1CC[N+](C)(C)CC1 [Perifosine] + CC1(C)NC(=O)N(c2ccc([N+](=O)[O-])c(C(F)(F)F)c2)C1=O [nilutamide] (first compound 0.4 µM, partner dose 1 µM) | 109% | 169% | 184% | 30700% | 173% | 263% | 132% | 118% | 134% | 86.3% | 54.3% | 79.8% | 163% | 120% | 60.1% | 132% | 51% | 55.4% | 71.9%
N#CC[C@H](C1CCCC1)n1cc(-c2ncnc3[nH]ccc23)cn1 [ruxolitinib] + Cn1cncc1[C@@](N)(c1ccc(Cl)cc1)c1ccc2c(c1)c(-c1cccc(Cl)c1)cc(=O)n2C [tipifarnib] (first compound 1 µM, partner dose 0.01 µM) | 94.9% | 71.3% | 75.4% | 80.3% | 45% | 283% | 111% | 77.9% | 183% | 92.8% | 118% | 43.3% | 85.1% | 90.5% | 88.2% | 42.5% | 209% | 168% | 223%
Cc1cn(-c2cc(NC(=O)c3ccc(C)c(Nc4nccc(-c5cccnc5)n4)c3)cc(C(F)(F)F)c2)cn1 [nilotinib] + C=CCn1c(=O)c2cnc(Nc3ccc(N4CCN(C)CC4)cc3)nc2n1-c1cccc(C(C)(C)O)n1 [MK1775] (first compound 0.2 µM, partner dose 0.02 µM) | 98.8% | 281% | 95.6% | 84.7% | 88.5% | 37.1% | 211% | 62.3% | 251% | 89.7% | 111% | 52.2% | 63.5% | 102% | 71.3% | 94.8% | 92.7% | 205% | 140%
O=c1[nH]nc(Sc2ncc([N+](=O)[O-])s2)n1-c1ccc2c(c1)OCCO2 + CN(NC(=O)CC(=O)NN(C)C(=S)c1ccccc1)C(=S)c1ccccc1 [STA4783] (first compound 0.2 µM, partner dose 0.006 µM) | 190% | 189% | 101% | 855% | 130% | 2270% | 125% | 444% | 166% | 149% | 66.3% | 139% | 198% | 101% | 388% | 155% | 259% | 78.5% | 71.7%
Cc1cc(Nc2cc(N3CCN(C)CC3)nc(Sc3ccc(NC(=O)C4CC4)cc3)n2)n[nH]1 [Tozasertib] + C[C@@H]1CCN(C(=O)CC#N)C[C@@H]1N(C)c1ncnc2[nH]ccc12 [CP690550] (first compound 0.006 µM, partner dose 1 µM) | 95.2% | 41.7% | 151% | 103% | 34% | 59.9% | 109% | 195% | 55.8% | 106% | 122% | 154% | 119% | 52.1% | 47.5% | 112% | 43.7% | 36.7% | 199%
O=c1[nH]nc(Sc2ncc([N+](=O)[O-])s2)n1-c1ccc2c(c1)OCCO2 + O=C(O)c1ccc(-c2c[nH]c3ncc(-c4ccccc4)cc23)cc1C1CCCC1 [GSK650394] (first compound 0.2 µM, partner dose 0.16 µM) | 87.8% | 81.2% | 116% | 107% | 96.3% | 104% | 72.3% | 84.2% | 102% | 82.5% | 81.1% | 128% | 57.5% | 163% | 45.3% | 161% | 145% | 123% | 72.2%
N#CC[C@H](C1CCCC1)n1cc(-c2ncnc3[nH]ccc23)cn1 [ruxolitinib] + O=C(CCCCCCC(=O)Nc1ccccc1)NO [vorinostat] (first compound 1 µM, partner dose 0.08 µM) | 35.7% | 212% | 89.5% | 99% | 36.6% | 114% | 85.7% | 90.4% | 136% | 104% | 156% | 33.8% | 53.2% | 63.1% | 128% | 135% | 18.1% | 49.4% | 144%
Cc1cc(Nc2cc(N3CCN(C)CC3)nc(Sc3ccc(NC(=O)C4CC4)cc3)n2)n[nH]1 [Tozasertib] + CO[C@@H]1[C@H](N(C)C(=O)c2ccccc2)C[C@H]2O[C@]1(C)n1c3ccccc3c3c4c(c5c6ccccc6n2c5c31)C(=O)NC4 [Midostaurin] (first compound 0.006 µM, partner dose 0.08 µM) | 144% | 138% | 38.6% | 46.4% | 66.2% | 169% | 121% | 80.5% | 34.7% | 108% | 178% | 91.9% | 122% | 164% | 73.5% | 100% | 92.5% | 124% | 67.5%
Cc1cn(-c2cc(NC(=O)c3ccc(C)c(Nc4nccc(-c5cccnc5)n4)c3)cc(C(F)(F)F)c2)cn1 [nilotinib] + Cc1ccc(NC(=O)c2cccc(N(C)C)c2)cc1NC(=O)c1ccc(O)cc1 [ZM336372] (first compound 0.2 µM, partner dose 2 µM) | 222% | 78.2% | 192% | 112% | 171% | 182% | 92% | 120% | 84.8% | 107% | 73.1% | 15.2% | 121% | 73.5% | 103% | 101% | 93.1% | 59.1% | 127%
O=C(/C=C/c1cccnc1)NCCCCC1CCN(C(=O)c2ccccc2)CC1 + O=C(CCCCCCC(=O)Nc1ccccc1)NO [vorinostat] (first compound 0.01 µM, partner dose 0.08 µM) | 89.8% | 196% | 57.7% | 80.7% | 143% | 1560% | 64.1% | 111% | 309% | 151% | 264% | 142% | 57.1% | 2390% | 173% | 181% | 97.1% | 28% | 61.3%

Part of the list above, comma-delimited:
Compound,cleaved PARP positive nuclei fraction (501Mel),cleaved PARP positive nuclei fraction (A101D),cleaved PARP positive nuclei fraction (A2058),cleaved PARP positive nuclei fraction (A375),cleaved PARP positive nuclei fraction (C32),cleaved PARP positive nuclei fraction (CBRC008),cleaved PARP positive nuclei fraction (CBRC013),cleaved PARP positive nuclei fraction (CBRC014),cleaved PARP positive nuclei fraction (CBRC016),cleaved PARP positive nuclei fraction (CBRC017),cleaved PARP positive nuclei fraction (COLO792),cleaved PARP positive nuclei fraction (COLO800),cleaved PARP positive nuclei fraction (COLO829),cleaved PARP positive nuclei fraction (G361),cleaved PARP positive nuclei fraction (IPC-298),cleaved PARP positive nuclei fraction (IST-MEL1),cleaved PARP positive nuclei fraction (LB2518-MEL),cleaved PARP positive nuclei fraction (LOXIMVI),cleaved PARP positive nuclei fraction (MEL-HO)
"O=c1[nH]nc(Sc2ncc([N+](=O)[O-])s2)n1-c1ccc2c(c1)OCCO2 + O=C(Nc1cccc(Cl)c1)Nc1ncc(CCNc2ncnc3ccsc23)s1 [SNS314] (first compound 0.2 µM, partner dose 0.0008 µM)",70.2%,58.4%,57.1%,120%,76.1%,156%,126%,76.5%,135%,88.1%,83.3%,101%,125%,49.2%,88%,66.7%,89.4%,25.7%,92.4%
"CCCCCCCCCCCCCCCCCCOP(=O)([O-])OC1CC[N+](C)(C)CC1 [Perifosine] + CC1(C)NC(=O)N(c2ccc([N+](=O)[O-])c(C(F)(F)F)c2)C1=O [nilutamide] (first compound 0.4 µM, partner dose 1 µM)",109%,169%,184%,30700%,173%,263%,132%,118%,134%,86.3%,54.3%,79.8%,163%,120%,60.1%,132%,51%,55.4%,71.9%
"N#CC[C@H](C1CCCC1)n1cc(-c2ncnc3[nH]ccc23)cn1 [ruxolitinib] + Cn1cncc1[C@@](N)(c1ccc(Cl)cc1)c1ccc2c(c1)c(-c1cccc(Cl)c1)cc(=O)n2C [tipifarnib] (first compound 1 µM, partner dose 0.01 µM)",94.9%,71.3%,75.4%,80.3%,45%,283%,111%,77.9%,183%,92.8%,118%,43.3%,85.1%,90.5%,88.2%,42.5%,209%,168%,223%
"Cc1cn(-c2cc(NC(=O)c3ccc(C)c(Nc4nccc(-c5cccnc5)n4)c3)cc(C(F)(F)F)c2)cn1 [nilotinib] + C=CCn1c(=O)c2cnc(Nc3ccc(N4CCN(C)CC4)cc3)nc2n1-c1cccc(C(C)(C)O)n1 [MK1775] (first compound 0.2 µM, partner dose 0.02 µM)",98.8%,281%,95.6%,84.7%,88.5%,37.1%,211%,62.3%,251%,89.7%,111%,52.2%,63.5%,102%,71.3%,94.8%,92.7%,205%,140%
"O=c1[nH]nc(Sc2ncc([N+](=O)[O-])s2)n1-c1ccc2c(c1)OCCO2 + CN(NC(=O)CC(=O)NN(C)C(=S)c1ccccc1)C(=S)c1ccccc1 [STA4783] (first compound 0.2 µM, partner dose 0.006 µM)",190%,189%,101%,855%,130%,2270%,125%,444%,166%,149%,66.3%,139%,198%,101%,388%,155%,259%,78.5%,71.7%
